# Data as given in article doi:10.1101/2025.01.31.635913.
# No constants are given. Whether binding was seen depends on the method and setting. Binding seen in cells or lysates may run through a third protein. A result given as binding can be weak or reduced; the word gives no strength. Sequences can lack the tags named with a protein.
# Molecular target: T1, AtMC1^C220A-GFP (catalytically inactive AtMC1 fused to C-terminal GFP), transiently expressed in N. benthamiana (Arabidopsis thaliana) (UniProt Q7XJE6)
# T1 sequence: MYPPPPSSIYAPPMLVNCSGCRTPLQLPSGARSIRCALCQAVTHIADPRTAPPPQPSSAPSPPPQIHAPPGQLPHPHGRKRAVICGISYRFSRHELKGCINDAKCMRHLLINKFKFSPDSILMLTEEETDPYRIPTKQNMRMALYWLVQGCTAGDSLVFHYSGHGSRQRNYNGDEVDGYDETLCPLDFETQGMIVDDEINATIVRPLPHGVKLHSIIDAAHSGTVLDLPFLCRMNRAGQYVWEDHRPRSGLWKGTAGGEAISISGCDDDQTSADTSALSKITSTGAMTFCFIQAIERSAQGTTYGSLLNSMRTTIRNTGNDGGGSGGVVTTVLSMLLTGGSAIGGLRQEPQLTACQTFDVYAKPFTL
# Assay: co-IP
substance,measurement,value
"SSI4 (AT5G41750)-3xHA, transiently expressed in N. benthamiana (from UniProt Q9LSX5) (receptor)",binding,binds
